US20120016155A1, “DIASTEREOISOMERS OF HYPOPHOSPHOROUS ACID DERIVATIVES” (priority 2009, published 2012)
Where a name gives a salt, the structure may show the parent alone. For at least one compound, name, drawing or mass did not settle the structure.

The chains behind the UniProt entries cited, without tags or fusion partners. Residues count along the entry.
UniProt Q14833, 33-912: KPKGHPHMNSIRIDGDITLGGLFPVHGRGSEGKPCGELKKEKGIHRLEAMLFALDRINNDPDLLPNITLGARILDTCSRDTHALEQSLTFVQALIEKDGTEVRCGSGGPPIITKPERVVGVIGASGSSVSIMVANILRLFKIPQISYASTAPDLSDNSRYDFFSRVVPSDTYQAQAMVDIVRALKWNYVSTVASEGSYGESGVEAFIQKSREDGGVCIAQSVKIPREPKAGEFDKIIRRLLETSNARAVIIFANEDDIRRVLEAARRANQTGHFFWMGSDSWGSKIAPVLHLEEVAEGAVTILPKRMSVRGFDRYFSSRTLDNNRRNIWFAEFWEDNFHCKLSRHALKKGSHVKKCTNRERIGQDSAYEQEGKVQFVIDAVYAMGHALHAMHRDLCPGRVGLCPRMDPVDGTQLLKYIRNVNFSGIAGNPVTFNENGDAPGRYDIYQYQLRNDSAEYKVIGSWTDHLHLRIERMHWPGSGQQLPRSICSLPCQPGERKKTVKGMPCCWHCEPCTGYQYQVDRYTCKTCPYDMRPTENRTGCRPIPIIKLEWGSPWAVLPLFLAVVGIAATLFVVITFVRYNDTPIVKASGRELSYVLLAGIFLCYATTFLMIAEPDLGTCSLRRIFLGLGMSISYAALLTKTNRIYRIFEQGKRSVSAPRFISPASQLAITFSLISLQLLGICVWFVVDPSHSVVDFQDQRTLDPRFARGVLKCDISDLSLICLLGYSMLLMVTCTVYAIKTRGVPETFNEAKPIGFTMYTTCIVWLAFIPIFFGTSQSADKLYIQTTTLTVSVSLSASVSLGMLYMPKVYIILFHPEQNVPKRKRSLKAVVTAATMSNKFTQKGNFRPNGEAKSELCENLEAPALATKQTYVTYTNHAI

Biological target: mGlu4 (Homo sapiens, UniProt Q14833)
Experiment: Activities on metabotropic glutamate receptor 4 (EC50; readout marked IP or by a symbol)
Format: cell-based
Settings: ratio of mGlu8 EC50 to mGlu4 EC50, one per pair of values (readout/batch); hydrochloride
Excerpt: Activities on Metabotropic Glutamate Receptors 4, 8, 6 and 7.
Nitrobenzyl PCEP Derivatives

| SMILES | mGlu8/4 EC50 ratio |
| --- | --- |
| NC(CCP(=O)(O)C(O)c1cccc([N+](=O)[O-])c1)C(=O)O (single isomer, unassigned) [LSP3-1098-II, hydrochloride] | 1.5 |
| NC(CCP(=O)(O)C(O)c1cccc([N+](=O)[O-])c1)C(=O)O (single isomer, unassigned) [LSP3-1098-I, hydrochloride] | 1.2 |
